Assay: Bone powder binding in vitro (microbiological assay detection)
Settings: 1 mg/ml compound in bone meal powder slurry 10 mg/ml in PBS, 37° C., 1 h
For “3-(((4-(2-(3-((bisphosphonomethyl)carbamoyl)propanoyloxy)ethyl)-1-piperazinyl)imino)methyl)rifamycin [Compound 11]”, the “% Bone binding” value was 95%. In the case of `CCN(CC)CC.CCN(CC)CC.CO[C@H]1/C=C/O[C@@]2(C)Oc3c(C)c(O)c4c(c3C2=O)C2=NC3(CCN(CC(C)C)CC3)NC2=C(NC(=O)/C(C)=C\C=C\[C@H](C)[C@H](OC(=O)CCC(=O)NCCCC(=O)NC(P(=O)(O)O)P(=O)(O)O)[C@@H](C)[C@@H](O)[C@@H](C)[C@H](OC(C)=O)[C@@H]1C)C4=O` [Compound 45, 21-O-(3-(3-((bisphosphonomethyl)carbamoyl)propylcarbamoyl)propanoyl)-1′,4-didehydro-1-deoxy-1,4-dihydro-5′-(2-methylpropyl)-1-oxorifamycin XIV], the “% Bone binding” value is reported as 99.8%. In the case of `CCN(CC)CC.CCN(CC)CC.CO[C@H]1/C=C/O[C@@]2(C)Oc3c(C)c(O)c4c(c3C2=O)C2=NC3(CCN(CC(C)C)CC3)N(C(=O)OCOC(=O)CCCC(P(=O)(O)O)P(=O)(O)O)C2=C(NC(=O)/C(C)=C\C=C\[C@H](C)[C@H](O)[C@@H](C)[C@@H](O)[C@@H](C)[C@H](OC(C)=O)[C@@H]1C)C4=O` [Compound 50], the “% Bone binding” value is reported as 96.8%. With `CO[C@H]1/C=C/O[C@@]2(C)Oc3c(C)c(O)c4c(=O)c(c5oc6cc(N7CCN(CCOC(=O)CCC(=O)NC(P(=O)(O)O)P(=O)(O)O)CC7)cc(O)c6nc-5c4c3C2=O)NC(=O)/C(C)=C\C=C\[C@H](C)[C@H](O)[C@@H](C)[C@@H](O)[C@@H](C)[C@H](OC(C)=O)[C@@H]1C.N.N` [Compound 62] the “% Bone binding” value was 99.8%. With `CO[C@H]1/C=C/O[C@@]2(C)Oc3c(C)c(O)c4c(=O)c(c5oc6cc(N7CCC(OC(=O)CCC(=O)NC(P(=O)(O)O)P(=O)(O)O)CC7)cc(O)c6nc-5c4c3C2=O)NC(=O)/C(C)=C\C=C\[C@H](C)[C@H](O)[C@@H](C)[C@@H](O)[C@@H](C)[C@H](OC(C)=O)[C@@H]1C` [Compound 68] the “% Bone binding” value was 99.9%. With `CO[C@H]1/C=C/O[C@@]2(C)Oc3c(C)c(O)c4c(=O)c(c5oc6cc(N7CCN(CCC(=O)c8ccc(OCCCC(P(=O)(O)O)P(=O)(O)O)cc8)CC7)cc(O)c6nc-5c4c3C2=O)NC(=O)/C(C)=C\C=C\[C@H](C)[C@H](O)[C@@H](C)[C@@H](O)[C@@H](C)[C@H](OC(C)=O)[C@@H]1C` [Compound 71] the “% Bone binding” value was 99.9%. For `CCN(CC)CC.CCN(CC)CC.CO[C@H]1/C=C/O[C@@]2(C)Oc3c(C)c(O)c4c(=O)c(c5oc6cc(N7CCN(CC(C)C)CC7)cc(O)c6nc-5c4c3C2=O)NC(=O)/C(C)=C\C=C\[C@H](C)[C@H](OC(=O)CCC(=O)NCCC(=O)NC(P(=O)(O)O)P(=O)(O)O)[C@@H](C)[C@@H](O)[C@@H](C)[C@H](OC(C)=O)[C@@H]1C` [Compound 78, 21-O-(3-(2-((bisphosphonomethyl)carbamoyl)ethylcarbamoyl)propanoyl)-1′,4-Didehydro-1-deoxy-1,4-dihydro-3′-hydroxy-5′-[4-(2-methylpropyl)-1-piperazinyl]-1-oxorifamycin VIII], the “% Bone binding” value was 99.9%. In the case of `CO[C@H]1/C=C/O[C@@]2(C)Oc3c(C)c(O)c4c(=O)c(c5oc6cc(N7CCN(CC(C)C)CC7)cc(O)c6nc-5c4c3C2=O)NC(=O)/C(C)=C\C=C\[C@H](C)[C@H](OC(=O)CCCOC(=O)CCC(=O)NC(P(=O)(O)O)P(=O)(O)O)[C@@H](C)[C@@H](O)[C@@H](C)[C@H](OC(C)=O)[C@@H]1C` [Compound 81, 21-O-(4-((3-(bisphosphonomethyl)carbamoyl)propanoyloxy)butanoyl)-1′,4-Didehydro-1-deoxy-1,4-dihydro-3′-hydroxy-5′-[4-(2-methylpropyl)-1-piperazinyl]-1-oxorifamycin VIII], the “% Bone binding” value is reported as 94.8%. For `CO[C@H]1/C=C/O[C@@]2(C)Oc3c(C)c(O)c4c(=O)c(c5oc6cc(N7CCN(CC(C)C)CC7)cc(O)c6nc-5c4c3C2=O)NC(=O)/C(C)=C\C=C\[C@H](C)[C@H](OC(=O)COC(=O)CCC(=O)NC(P(=O)(O)O)P(=O)(O)O)[C@@H](C)[C@@H](O)[C@@H](C)[C@H](OC(C)=O)[C@@H]1C` [Compound 84, 21-O-(2-((3-(bisphosphonomethyl)carbamoyl)propanoyloxy)acetyl)-1′,4-Didehydro-1-deoxy-1,4-dihydro-3′-hydroxy-5′-[4-(2-methylpropyl)-1-piperazinyl]-1-oxorifamycin VIII], the “% Bone binding” value was 99.8%.

Reference: patent publication US8404664B2, “Phosphonated Rifamycins and uses thereof for the prevention and treatment of bone and joint infections” (Targanta Therapeutics, Inc., priority 2005, dated 2013)
